Record: PubChem BioAssay AID1259308 (NCATS, 2017)
Aim: 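Knock-downs that increase output of a recombinant reporter protein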 (primary screen). Cells: human HEK293 embryonic kidney cells stably expressing firefly luciferase (HEK-CMV-Luc2-Hygro). Reagents: single siRNA against human genes, 0.8 pmol siRNA per well. Time to read-out: 72 h. Read-out: 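Reporter luminescence and viable-cell signal on separate replicate plates, given as percent of non-targeting control and median/MAD z-scores, plus per-cell luciferase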. Scale: total luciferase, z-score and total luciferase, % of control: higher = more reporter protein produced. Active means: 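Active when the median/MAD z-score for overall luciferase is greater than 3; a gene was taken forward for validation with new siRNAs if at least two of its three siRNAs passed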. Meaning of the calls: active = raised luciferase; inactive = no rise.
Here is an unselected part of about 59,000 reagents tested. Over the whole deposit, about 1,510 (2.6%) got an active call. 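Calls use total luciferase alone and ignore viability, so some active siRNAs may act by altering cell number.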 The numbers tell different reagents against one gene apart. Not all columns of the deposit are shown.

no.	Gene	siRNA no.	total luciferase, z-score	total luciferase, % of control	outcome
1	TAF6L	1	2.31	128	inactive
2	TAF6L	2	0.466	91.2	inactive
3	TAF6L	3	0.683	95.5	inactive
4	TRIM4	1	0.172	85.3	inactive
5	TRIM4	2	-0.626	69.4	inactive
6	TRIM4	3	-0.0429	81	inactive
7	HEBP1	1	3.63	154	active
8	HEBP1	2	-0.143	79	inactive
9	HEBP1	3	-0.751	67	inactive
10	MGST2	1	-0.275	76.4	inactive
11	MGST2	2	-1.22	57.6	inactive
12	MGST2	3	0.0484	82.8	inactive
13	THRSP	1	0.419	90.2	inactive
14	THRSP	2	-0.889	64.2	inactive
15	THRSP	3	0.118	84.2	inactive
16	RPS11P5	1	-2.4	34.1	inactive
17	RPS11P5	2	-1.53	51.4	inactive
18	RPS11P5	3	-3.14	19.5	inactive
19	PTH1R	1	0.0145	82.2	inactive
20	PTH1R	2	0.17	85.3	inactive
21	PTH1R	3	-1.8	46.1	inactive
22	FNDC10	1	3.45	150	active
23	FNDC10	2	0.601	93.8	inactive
24	FNDC10	3	-2.01	41.8	inactive
25	UPK1A	1	0.837	98.5	inactive
26	UPK1A	2	2.59	133	inactive
27	UPK1A	3	-0.094	80	inactive
28	GATA4	1	-0.343	75.1	inactive
29	GATA4	2	-0.231	77.3	inactive
30	GATA4	3	1.7	116	inactive
31	C1GALT1C1	1	-0.18	78.3	inactive
32	C1GALT1C1	2	-0.0573	80.7	inactive
33	C1GALT1C1	3	0.0166	82.2	inactive
34	TMEM86A	1	1	102	inactive
35	TMEM86A	2	3.07	143	active
36	TMEM86A	3	-0.478	72.4	inactive
37	HLA-DRA	1	-0.112	79.7	inactive
38	HLA-DRA	2	0.0618	83.1	inactive
39	HLA-DRA	3	1.12	104	inactive
40	TACC2	1	3.56	153	active
41	TACC2	2	-1.23	57.4	inactive
42	TACC2	3	3.7	156	active
43	PRKCQ	1	0.56	93	inactive
44	PRKCQ	2	-0.558	70.8	inactive
45	PRKCQ	3	1.13	104	inactive
46	TBC1D22A-AS1	1	-0.75	67	inactive
47	TBC1D22A-AS1	2	0.132	84.5	inactive
48	TBC1D22A-AS1	3	0.19	85.7	inactive
49	BTNL3	1	1.48	111	inactive
50	BTNL3	2	0.228	86.4	inactive
51	BTNL3	3	-0.792	66.1	inactive
52	VPS28	1	1.3	108	inactive
53	VPS28	2	-0.0434	81	inactive
54	VPS28	3	1.43	110	inactive
55	CKB	1	-0.373	74.5	inactive
56	CKB	2	0.243	86.7	inactive
57	CKB	3	-0.606	69.8	inactive
58	TMEM70	1	0.77	97.2	inactive
59	TMEM70	2	1.2	106	inactive
60	TMEM70	3	1.8	118	inactive
61	CAPSL	1	-0.462	72.7	inactive
62	CAPSL	2	-0.232	77.3	inactive
63	CAPSL	3	-0.414	73.6	inactive
64	CALB1	1	-0.197	78	inactive
65	CALB1	2	-0.366	74.6	inactive
66	CALB1	3	-0.466	72.6	inactive
67	CD40LG	1	0.297	87.8	inactive
68	CD40LG	2	-2.2	38.1	inactive
69	CD40LG	3	0.856	98.9	inactive
70	SERPINB6	1	1.12	104	inactive
71	SERPINB6	2	-0.166	78.6	inactive
72	SERPINB6	3	-0.383	74.3	inactive
73	SORCS3	1	-0.201	77.9	inactive
74	SORCS3	2	-0.0821	80.3	inactive
75	SORCS3	3	-0.906	63.9	inactive

4 entries from above, set out differently.
{"Gene": "TMEM70", "siRNA no.": 2, "total luciferase, z-score": 1.2, "total luciferase, % of control": 106, "outcome": "inactive"}
{"Gene": "TMEM70", "siRNA no.": 3, "total luciferase, z-score": 1.8, "total luciferase, % of control": 118, "outcome": "inactive"}
{"Gene": "CAPSL", "siRNA no.": 1, "total luciferase, z-score": -0.462, "total luciferase, % of control": 72.7, "outcome": "inactive"}
{"Gene": "CAPSL", "siRNA no.": 2, "total luciferase, z-score": -0.232, "total luciferase, % of control": 77.3, "outcome": "inactive"}
